PubChem BioAssay AID1224827, NIAID – 2016
Here is a random part of about 3,800 reagents tested. Over the whole deposit, about 2,200 (57%) are marked active. 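Active means a strong reporter change in either direction; calls are per siRNA, not per gene; qiagen siRNAs gave weaker effects.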 The numbers tell different reagents against one gene apart. Reagent sequences are not shown.

Screen: 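Identify regulators of the macrophage TNF-alpha response to bacterial LPS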 (follow-up of hits)
Cells: RAW264.7 G9 mouse macrophage reporter clone
Reagent: single siRNA against mouse genes, 100 nM siRNA
Time to read-out: siRNA for 2 days, then LPS about 16 h
Conditions: bacterial lipopolysaccharide (LPS), 10 ng/ml, cells fixed after overnight (about 16 h) stimulation
Measurement: 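Imaged nuclear TNF reporter intensity, background removed, scaled per plate and to non-targeting control wells, as z-scores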
Reading the numbers: TNF reporter z-score, mean and TNF reporter z-score: higher = stronger Tnf promoter reporter signal; gene median z, three same-vendor siRNAs: higher = stronger Tnf reporter signal for the gene
Active means: 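An siRNA is called active when its mean z-score over replicates is at least +2 or at most -2; control wells get no call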

gene,reagent,"TNF reporter z-score, mean","gene median z, three same-vendor siRNAs","TNF reporter z-score, repeat 1","TNF reporter z-score, repeat 2",outcome
Bok,1,-4.14,-5.04,-5.3,-2.98,active
Bok,2,-4.27,-5.04,-4.77,-3.78,active
Bok,3,-5.76,-5.04,-5.68,-5.84,active
Pop7,1,0.546,-2.2,0.839,0.252,inactive
Pop7,2,-2.2,-2.2,-2.54,-1.86,active
Pop7,3,-3.43,-2.2,-3.87,-2.99,active
Pop7,4,2.87,-0.757,4.9,0.836,active
Pop7,5,-0.947,-0.757,-1.68,-0.211,inactive
Pop7,6,-1.32,-0.757,-1.3,-1.34,inactive
Syngr1,1,-2.74,-3.48,-3.03,-2.44,active
Syngr1,2,-3.6,-3.48,-3.71,-3.49,active
Syngr1,3,-3.68,-3.48,-3.89,-3.46,active
Syngr1,4,4.82,0.649,7.62,2.01,active
Syngr1,5,0.284,0.649,1.73,-1.16,inactive
Syngr1,6,-0.905,0.649,-1.38,-0.428,inactive
Rnf8,1,-3.96,-4.26,-4.29,-3.63,active
Rnf8,2,-4.09,-4.26,-3.95,-4.23,active
Rnf8,3,-4.98,-4.26,-4.93,-5.04,active
Rnf8,4,1.38,-1.34,3.97,-1.21,inactive
Rnf8,5,0.672,-1.34,2.82,-1.48,inactive
Rnf8,6,-2.09,-1.34,-2.27,-1.9,active
Stat4,1,0.3,0.0637,0.267,0.333,inactive
Stat4,2,0.0637,0.0637,0.195,-0.0673,inactive
Stat4,3,-3.7,0.0637,-3.81,-3.58,active
Stat4,4,3.75,0.539,7.53,-0.0247,active
Stat4,5,1.49,0.539,2.66,0.32,inactive
Stat4,6,-0.739,0.539,0.759,-2.24,inactive
BC051665,1,14.5,-0.948,13.7,15.3,active
BC051665,2,-0.948,-0.948,-1.5,-0.399,inactive
BC051665,3,-4.36,-0.948,-4.33,-4.39,active
BC051665,4,4.73,1.87,7.2,2.26,active
BC051665,5,2.91,1.87,4.34,1.47,active
BC051665,6,-1.29,1.87,-1.95,-0.636,inactive
Ttc29,1,-2.26,-4.01,-3.32,-1.21,active
Ttc29,2,-4.01,-4.01,-3.98,-4.03,active
Ttc29,3,-4.64,-4.01,-4.43,-4.85,active
Ttc29,4,2.91,0.0515,4.45,1.37,active
Ttc29,5,0.508,0.0515,2.3,-1.28,inactive
Ttc29,6,-2.03,0.0515,-2.79,-1.26,active
Grb2,1,3.14,-3.4,1.46,4.82,active
Grb2,2,-3.64,-3.4,-3.63,-3.65,active
Grb2,3,-4.04,-3.4,-3.16,-4.91,active
Grb2,4,0.685,-0.402,1.64,-0.267,inactive
Grb2,5,-0.0371,-0.402,0.463,-0.537,inactive
Grb2,6,-0.844,-0.402,-1.01,-0.676,inactive
Nxnl1,1,-2.33,-4.65,-3.08,-1.58,active
Nxnl1,2,-4.65,-4.65,-4.71,-4.59,active
Nxnl1,3,-5.7,-4.65,-5.89,-5.52,active
Nxnl1,4,3.27,-0.7,5.1,1.44,active
Nxnl1,5,-0.7,-0.7,0.458,-1.86,inactive
Nxnl1,6,-3.04,-0.7,-2.95,-3.13,active
Lyrm2,1,2.3,-1.25,3.41,1.19,active
Lyrm2,2,-1.25,-1.25,-0.446,-2.06,inactive
Lyrm2,3,-3.14,-1.25,-2.64,-3.63,active
Lyrm2,4,1.38,-1.69,3.92,-1.16,inactive
Lyrm2,5,-1.38,-1.69,-2.22,-0.544,inactive
Lyrm2,6,-3.67,-1.69,-4.85,-2.48,active

No new results follow: 3 of the entries above.
gene,reagent,"TNF reporter z-score, mean","gene median z, three same-vendor siRNAs","TNF reporter z-score, repeat 1","TNF reporter z-score, repeat 2",outcome
Syngr1,2,-3.6,-3.48,-3.71,-3.49,active
Syngr1,3,-3.68,-3.48,-3.89,-3.46,active
Syngr1,4,4.82,0.649,7.62,2.01,active
